In PubChem BioAssay AID186 (DTP/NCI, 2004):
Values are animals surviving of animals treated; these mice carried no tumour. Counts of survivors are from the toxicity check (mostly the fifth day) where no day follows; animals may have died later. Schedules are NCI's codes, read here as Q, the interval in days (D) or hours (H), X, the number of doses.

Tested on: B6D2F1 mice, nontumored toxicity test, survival
Assay: NCI In Vivo Anticancer Drug Screen. Data for tumor model Nontumored Animals (Toxicity Test) in B6D2F1 (BDF1) mice

Question: For `COc1cccc2c1C(=O)c1c(O)c3c(c(O)c1C2=O)C[C@@](O)(/C(C)=N/NC(=O)c1ccccc1)C[C@@H]3OC1CC(N)C(O)C(C)O1` (some centres undefined), which survivor count (dose: 0.18 mg/kg/injection, schedule: Q03HX008 (ip), vehicle: water) is on record?
Answer: 6 of 6

Question: And the survivor count (dose: 0.5 mg/kg/injection, schedule: Q01DX009 (ip), vehicle: water)?
Answer: 6 of 6

Question: What about the survivor count (dose: 0.5 mg/kg/injection, schedule: Q03HX024 (ip), vehicle: water) of the same compound?
Answer: 6 of 6

Question: What about the survivor count (dose: 0.78 mg/kg/injection, schedule: Q03HX024 (ip), vehicle: water) of the same compound?
Answer: 6 of 6

Question: And the survivor count (dose: 1.0 mg/kg/injection, schedule: Q01DX009 (ip), vehicle: water)?
Answer: 6 of 6

Question: And the survivor count (dose: 1.0 mg/kg/injection, schedule: Q03HX008 (ip), vehicle: water)?
Answer: 5 of 6

Question: What about the survivor count (dose: 1.0 mg/kg/injection, schedule: Q03HX024 (ip), vehicle: water) of the same compound?
Answer: 6 of 6

Question: What about the survivor count (dose: 1.17 mg/kg/injection, schedule: Q03HX024 (ip), vehicle: water) of the same compound?
Answer: 6 of 6

Question: What about the survivor count (dose: 1.2 mg/kg/injection, schedule: Q01DX009 (ip), vehicle: water) of the same compound?
Answer: 6 of 6

Question: And the survivor count (dose: 1.2 mg/kg/injection, schedule: Q03HX008 (ip), vehicle: water)?
Answer: 6 of 6

Question: And the survivor count (dose: 1.75 mg/kg/injection, schedule: Q03HX008 (ip), vehicle: water)?
Answer: 6 of 6

Question: And the survivor count (dose: 1.75 mg/kg/injection, schedule: Q03HX024 (ip), vehicle: water)?
Answer: 6 of 6

Question: And the survivor count (dose: 1.76 mg/kg/injection, schedule: Q01DX009 (ip), vehicle: water)?
Answer: 6 of 6

Question: And the survivor count (dose: 2.0 mg/kg/injection, schedule: Q01DX009 (ip), vehicle: water)?
Answer: 6 of 6

Question: What about the survivor count (dose: 2.0 mg/kg/injection, schedule: Q03HX008 (ip), vehicle: water) of the same compound?
Answer: 8 of 8

Question: What about the survivor count (dose: 2.0 mg/kg/injection, schedule: Q03HX024 (ip), vehicle: water) of the same compound?
Answer: 6 of 6

Question: What about the survivor count (dose: 2.5 mg/kg/injection, schedule: Q04DX003 (ip), vehicle: water) of the same compound?
Answer: 6 of 6

Question: And the survivor count (dose: 2.6 mg/kg/injection, schedule: Q01DX009 (ip), vehicle: water)?
Answer: 6 of 6

Question: And the survivor count (dose: 2.6 mg/kg/injection, schedule: Q03HX008 (ip), vehicle: water)?
Answer: 6 of 6

Question: What about the survivor count (dose: 2.6 mg/kg/injection, schedule: Q03HX024 (ip), vehicle: water) of the same compound?
Answer: 6 of 6

Question: And the survivor count (dose: 2.6 mg/kg/injection, schedule: Q04DX003 (ip), vehicle: water)?
Answer: 6 of 6

Question: And the survivor count (dose: 3.9 mg/kg/injection, schedule: Q01DX001 (ip), vehicle: water)?
Answer: 6 of 6

Question: And the survivor count (dose: 3.9 mg/kg/injection, schedule: Q01DX009 (ip), vehicle: water)?
Answer: 6 of 6

Question: What about the survivor count (dose: 3.9 mg/kg/injection, schedule: Q03HX008 (ip), vehicle: water) of the same compound?
Answer: 6 of 6

Question: What about the survivor count (dose: 3.9 mg/kg/injection, schedule: Q03HX024 (ip), vehicle: water) of the same compound?
Answer: 6 of 6

Question: And the survivor count (dose: 3.9 mg/kg/injection, schedule: Q04DX003 (ip), vehicle: water)?
Answer: 5 of 6

Question: What about the survivor count (dose: 4.0 mg/kg/injection, schedule: Q03HX008 (ip), vehicle: water) of the same compound?
Answer: 6 of 6

Question: And the survivor count (dose: 5.0 mg/kg/injection, schedule: Q01DX001 (ip), vehicle: water)?
Answer: 6 of 6

Question: What about the survivor count (dose: 5.0 mg/kg/injection, schedule: Q04DX003 (ip), vehicle: water) of the same compound?
Answer: 6 of 6

Question: What about the survivor count (dose: 5.0 mg/kg/injection, schedule: Q08DX002 (ip), vehicle: water) of the same compound?
Answer: 6 of 6

Question: And the survivor count (dose: 5.9 mg/kg/injection, schedule: Q01DX001 (ip), vehicle: water)?
Answer: 6 of 6

Question: And the survivor count (dose: 5.9 mg/kg/injection, schedule: Q01DX009 (ip), vehicle: water)?
Answer: 5 of 6

Question: What about the survivor count (dose: 5.9 mg/kg/injection, schedule: Q03HX008 (ip), vehicle: water) of the same compound?
Answer: 6 of 6

Question: And the survivor count (dose: 5.9 mg/kg/injection, schedule: Q03HX024 (ip), vehicle: water)?
Answer: 5 of 6

Question: What about the survivor count (dose: 5.9 mg/kg/injection, schedule: Q04DX003 (ip), vehicle: water) of the same compound?
Answer: 6 of 6

Question: What about the survivor count (dose: 8.9 mg/kg/injection, schedule: Q01DX001 (ip), vehicle: water) of the same compound?
Answer: 6 of 6

Question: And the survivor count (dose: 8.9 mg/kg/injection, schedule: Q01DX009 (ip), vehicle: water)?
Answer: 6 of 6

Question: And the survivor count (dose: 8.9 mg/kg/injection, schedule: Q04DX003 (ip), vehicle: water)?
Answer: 6 of 6

Question: And the survivor count (dose: 10.0 mg/kg/injection, schedule: Q01DX001 (ip), vehicle: water)?
Answer: 6 of 6

Question: What about the survivor count (dose: 10.0 mg/kg/injection, schedule: Q04DX003 (ip), vehicle: water) of the same compound?
Answer: 6 of 6

Question: And the survivor count (dose: 10.0 mg/kg/injection, schedule: Q08DX002 (ip), vehicle: water)?
Answer: 6 of 6

Question: What about the survivor count (dose: 13.3 mg/kg/injection, schedule: Q01DX001 (ip), vehicle: water) of the same compound?
Answer: 6 of 6

Question: And the survivor count (dose: 13.3 mg/kg/injection, schedule: Q04DX003 (ip), vehicle: water)?
Answer: 5 of 6

Question: And the survivor count (dose: 20.0 mg/kg/injection, schedule: Q01DX001 (ip), vehicle: water)?
Answer: 6 of 6

Question: And the survivor count (dose: 20.0 mg/kg/injection, schedule: Q04DX003 (ip), vehicle: water)?
Answer: 6 of 6

Question: And the survivor count (dose: 20.0 mg/kg/injection, schedule: Q08DX002 (ip), vehicle: water)?
Answer: 6 of 6

Question: What about the survivor count (dose: 30.0 mg/kg/injection, schedule: Q01DX001 (ip), vehicle: water) of the same compound?
Answer: 5 of 6

Question: Which survivor count (dose: 0.75 mg/kg/injection, schedule: Q06HX024 (ip), vehicle: saline) does the source give for `CN(C)c1ncnc2c1ncn2C1OC(CO)C(N)C1O` (centres undefined) here?
Answer: 5 of 6

Question: And the survivor count (dose: 1.5 mg/kg/injection, schedule: Q06HX024 (ip), vehicle: saline)?
Answer: 6 of 6

Question: What about the survivor count (dose: 3.0 mg/kg/injection, schedule: Q06HX024 (ip), vehicle: saline) of the same compound?
Answer: 6 of 6

Question: What about the survivor count (dose: 6.0 mg/kg/injection, schedule: Q06HX024 (ip), vehicle: saline) of the same compound?
Answer: 6 of 6

Question: With `O=c1ccn(C2OC(CO)C(O)C2O)c(=O)[nH]1` (centres undefined) as the compound, how does the survivor count (dose: 0.2 mg/kg/injection, schedule: Q01DX011 (adlb), vehicle: water) read?
Answer: 10 of 10

Question: What about the survivor count (dose: 2.0 mg/kg/injection, schedule: Q01DX011 (adlb), vehicle: water) of the same compound?
Answer: 10 of 10

Question: Which results are given for `NC(Cc1cc(I)c(Oc2cc(I)c(O)c(I)c2)c(I)c1)C(=O)O` (centres undefined)?
Answer: survivor count (dose: 0.63 mg/kg/injection, schedule: Q01DX009 (ip), vehicle: saline): 5 of 5; survivor count (dose: 2.5 mg/kg/injection, schedule: Q01DX009 (ip), vehicle: saline): 5 of 5; survivor count (dose: 10.0 mg/kg/injection, schedule: Q01DX009 (ip), vehicle: saline): 5 of 5; survivor count (dose: 40.0 mg/kg/injection, schedule: Q01DX009 (ip), vehicle: saline): 5 of 5; survivor count (dose: 80.0 mg/kg/injection, schedule: Q01DX009 (ip), vehicle: saline): 5 of 5; survivor count (dose: 160.0 mg/kg/injection, schedule: Q01DX009 (ip), vehicle: saline): 5 of 5
